Results are given in words; binding and its absence hold for the method and conditions named. Binding seen in cells or lysates may run through a third protein. These calls come from enrichment with a bait or labelling near it, and not all partners need be listed.
Molecular target: T1, binder of Arl two (BART) (human (endogenous in S2-013)) (UniProt Q9Y2Y0)
T1 sequence: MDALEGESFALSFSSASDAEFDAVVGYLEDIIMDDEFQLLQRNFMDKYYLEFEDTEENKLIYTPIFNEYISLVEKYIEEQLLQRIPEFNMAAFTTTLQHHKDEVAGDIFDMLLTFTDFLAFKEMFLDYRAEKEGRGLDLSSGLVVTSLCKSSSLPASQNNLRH
Assay: affinity purification with mass spectrometry; S2-013 lysate (20 mM HEPES pH 7.4, 100 mM KCl, 5 mM MgCl2, 0.5% Triton X-100) precipitated with anti-BART antibody and protein G Sepharose; silver-stained 50-kDa band analysed by Q-TOF-MS; normal rabbit IgG as control

binding: binds
B1: annexin7 (ANX7) (protein, UniProt P20073-1 1-488)
chain: MSYPGYPPTGYPPFPGYPPAGQESSFPPSGQYPYPSGFPPMGGGAYPQVPSSGYPGAGGYPAPGGYPAPGGYPGAPQPGGAPSYPGVPPGQGFGVPPGGAGFSGYPQPPSQSYGGGPAQVPLPGGFPGGQMPSQYPGGQPTYPSQINTDSFSSYPVFSPVSLDYSSEPATVTQVTQGTIRPAANFDAIRDAEILRKAMKGFGTDEQAIVDVVANRSNDQRQKIKAAFKTSYGKDLIKDLKSELSGNMEELILALFMPPTYYDAWSLRKAMQGAGTQERVLIEILCTRTNQEIREIVRCYQSEFGRDLEKDIRSDTSGHFERLLVSMCQGNRDENQSINHQMAQEDAQRLYQAGEGRLGTDESCFNMILATRSFPQLRATMEAYSRMANRDLLSSVSREFSGYVESGLKTILQCALNRPAFFAERLYYAMKGAGTDDSTLVRIVVTRSEIDLVQIKQMFAQMYQKTLGTMIAGDTSGDYRRLLLAIVGQ

Source: paper PMC3330813
